Source: paper PMC7819943, “Rice protein-binding microarrays: a tool to detect cis-acting elements near promoter regions in rice”
This is one part of the list.

biological target: T1, OsSMF1 (Oryza sativa, UniProt Q6ZLB0 1-436); test: protein-binding microarray (RPBM); PBS, 2% BSA, 51.3 ng/ul salmon testes DNA, 50 uM zinc acetate, 200 nM TF, 25 C, 1 h; high values mean tight binding; conditions: protein: recombinant; tags: N-terminal polyhistidine and DsRed monomer fusion (pET32a); chain copies: 2; label: CyDye5-dUTP incorporated in the synthesized complementary strand; 3' TTTTT single-stranded linker to array surface; dsDNA, one strand shown
T1 sequence: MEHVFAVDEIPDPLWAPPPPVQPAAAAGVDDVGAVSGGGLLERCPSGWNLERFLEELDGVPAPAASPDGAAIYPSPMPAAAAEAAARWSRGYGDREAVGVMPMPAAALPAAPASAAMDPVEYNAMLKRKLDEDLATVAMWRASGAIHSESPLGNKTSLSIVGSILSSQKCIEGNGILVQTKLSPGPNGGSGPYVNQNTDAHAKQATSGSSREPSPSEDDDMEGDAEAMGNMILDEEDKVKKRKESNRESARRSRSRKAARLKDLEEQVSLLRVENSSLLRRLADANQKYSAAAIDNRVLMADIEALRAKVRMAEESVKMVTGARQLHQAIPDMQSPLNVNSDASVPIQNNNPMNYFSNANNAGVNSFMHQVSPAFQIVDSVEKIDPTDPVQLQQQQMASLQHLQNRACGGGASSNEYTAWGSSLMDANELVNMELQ
Method in brief: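 The binding signal is fluorescence intensity per feature, in arbitrary units, read on an Axon 4000B scanner. Polyhistidine- and DsRed-tagged transcription factors (N-terminal fusions) from E. coli BL21-CodonPlus were purified on Ni–NTA and applied at 200 nM for 1 h at 25 °C to a double-stranded, BSA-blocked custom Agilent array in buffer with 50 µM zinc acetate.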

Sequence | binding signal
TTTTCATAAATGCTCCTTTGAAACAAATGATTTTACCCTACGGAGTCACCTAGTGCAG | 43000 fluorescence intensity (a.u.)
AAAATCATGGTAACAAACAAATGCACACATATTGATACAACGGAGTCACCTAGTGCAG | 20800 fluorescence intensity (a.u.)
TATCGAGCTAGCTAGGCACAGAGCCATGGCGATGAGGTGGCGGAGTCACCTAGTGCAG | 6060 fluorescence intensity (a.u.)
TCGATCTACACATGCGGCTGTTCTTCGTTCGCGTCATTGTCGGAGTCACCTAGTGCAG | 3500 fluorescence intensity (a.u.)
ACGCAGAGGCCGCCGACGACAAGCCGCTCGCCGGGATCAGCGGAGTCACCTAGTGCAG | 7920 fluorescence intensity (a.u.)
GCAATGGTCACCTGATACGAAGTGAAACCACACCACACCACGGAGTCACCTAGTGCAG | 3660 fluorescence intensity (a.u.)
ACTTAAAGCTGTCTTGGAATTTCGATGACGCGTGCCATTTCGGAGTCACCTAGTGCAG | 5310 fluorescence intensity (a.u.)
GTATGTCGCTGAATTTAGACACCTCAACATCAAATACCATCGGAGTCACCTAGTGCAG | 3900 fluorescence intensity (a.u.)
TCATGTTGTTGCCACGCCGATATGCCTCCTCATGCGTATCCGGAGTCACCTAGTGCAG | 6460 fluorescence intensity (a.u.)
GGACGCCGAGGCGCTGCTCGGCCACGCCCGCCTCGCCGCCCGGAGTCACCTAGTGCAG | 4000 fluorescence intensity (a.u.)
AAGCACGACATAATATATGTACCGGCAGATCGACTCAGCTCGGAGTCACCTAGTGCAG | 3780 fluorescence intensity (a.u.)
ACATAGAGTTGGGTGTGTTAGATACGGGTAAAGCTCCATTCGGAGTCACCTAGTGCAG | 17500 fluorescence intensity (a.u.)
CATCCAGACCATCCTGTCGGAGAAGAGCGGCAGGGTGACGCGGAGTCACCTAGTGCAG | 3990 fluorescence intensity (a.u.)
GACCCGGAGGTCGCCGTTGTCGTTTCTCTCTCTTACCATGCGGAGTCACCTAGTGCAG | 3470 fluorescence intensity (a.u.)
CTCCTCTCCCGCGCGCCACGCCCTCCCTCCCCTTCCCCTTCGGAGTCACCTAGTGCAG | 4060 fluorescence intensity (a.u.)
TTTAGTTGGTGTACACGGTGTGTACACGTGAGGGCCTGTGCGGAGTCACCTAGTGCAG | 6300 fluorescence intensity (a.u.)
AAAAGTAAAGAAACAGTTGCAACGTCACCAAACCGCCGATCGGAGTCACCTAGTGCAG | 10300 fluorescence intensity (a.u.)
ACTTATCCAAATACAAATGACATGGACACGCAATTATCCTCGGAGTCACCTAGTGCAG | 4590 fluorescence intensity (a.u.)
CATCGTCCGAAGCCAGCCTTACGTGGTCGACATGCACGTCCGGAGTCACCTAGTGCAG | 4320 fluorescence intensity (a.u.)
TAGTTAGAGGTATCATCAGGGATGACATGCATACAATGTTCGGAGTCACCTAGTGCAG | 3180 fluorescence intensity (a.u.)
TCCATGTATATTACATCATGGGGTTATGTAACATCACTGACGGAGTCACCTAGTGCAG | 8280 fluorescence intensity (a.u.)

Sequence | binding signal
CTGCGGCCGTTCTTTCCTTTTCGGTTTCATACGTGGGGTCCGGAGTCACCTAGTGCAG | 5130 fluorescence intensity (a.u.)
CTTATCTAGATTCATTAACATCCGTATGAATGTGGAAAATCGGAGTCACCTAGTGCAG | 3790 fluorescence intensity (a.u.)
CCACACTTTTCTACTCTCATGGCCCACATGTCATACACTCCGGAGTCACCTAGTGCAG | 3710 fluorescence intensity (a.u.)
TGATTGAGCTGAGAGAGAGACGAGTGTGAGTGTGAGTCAGCGGAGTCACCTAGTGCAG | 8420 fluorescence intensity (a.u.)
CTTGCTGTCTTCCTCCTGACGTGTCATCGTCGGCCTTGCTCGGAGTCACCTAGTGCAG | 22900 fluorescence intensity (a.u.)
TACGAAGCACGGCGACTTTAGCCTTCTCGAACACGTCGAACGGAGTCACCTAGTGCAG | 4060 fluorescence intensity (a.u.)
TTAGTGTTAAAGCCGTGAAAAGAAAACACGTGTAAAATTTCGGAGTCACCTAGTGCAG | 5990 fluorescence intensity (a.u.)
GCCTTGTTTATTAGTATTACCATGTGGCTGATGCAGCCTACGGAGTCACCTAGTGCAG | 3700 fluorescence intensity (a.u.)
AGTTTGGGTTTTCCGCTGACGTGGACTCCCACGTATTCTCCGGAGTCACCTAGTGCAG | 16300 fluorescence intensity (a.u.)
TGACGAGAGGTATATATTCCTGCAGAGAAGCAGTGCAAAACGGAGTCACCTAGTGCAG | 35300 fluorescence intensity (a.u.)
GAGAACTGGCTGGTGTCCAATGACGCTGTCTGTTGCGATCCGGAGTCACCTAGTGCAG | 3700 fluorescence intensity (a.u.)
TGAAAACCAGCAGCAGTCGTCATCGATCTCGAGCGCCACACGGAGTCACCTAGTGCAG | 3330 fluorescence intensity (a.u.)
ATAAACTCTTTGGACCGCCGGTCAGCGTACATCCATTGCCCGGAGTCACCTAGTGCAG | 3520 fluorescence intensity (a.u.)
CACGTGAATTATGTATGACGAGATCGTGACTTATTTCTGACGGAGTCACCTAGTGCAG | 5640 fluorescence intensity (a.u.)
TTCTCTCTCTCCTGTGTTTTGTCTACCACGTTCTCAACCCCGGAGTCACCTAGTGCAG | 3190 fluorescence intensity (a.u.)
AAAGTTCTAATGAGGATAATGGAAATGCTGACCTGGCTTCCGGAGTCACCTAGTGCAG | 11600 fluorescence intensity (a.u.)
ACAGACTTGTTTAAGTTACAAGACGATACTATAAGAATTTCGGAGTCACCTAGTGCAG | 41100 fluorescence intensity (a.u.)
TTGATTGACTAAACTGTCACGTCAGCGTCATATTGACGAACGGAGTCACCTAGTGCAG | 12600 fluorescence intensity (a.u.)
CTCACAGGACAGTGATGTGGCGCCAAGTTGCCATGTGGCACGGAGTCACCTAGTGCAG | 17400 fluorescence intensity (a.u.)
GCTGAAAAGATATATATGATTCCTCCTCCTCCTCCAGGTACGGAGTCACCTAGTGCAG | 18700 fluorescence intensity (a.u.)
CCGCAAGCCTGCACGACACGTGAACACGAAATCCACAAGTCGGAGTCACCTAGTGCAG | 3240 fluorescence intensity (a.u.)

A run of entries from further up, for reference:
Sequence | binding signal
TCATGTTGTTGCCACGCCGATATGCCTCCTCATGCGTATCCGGAGTCACCTAGTGCAG | 6460 fluorescence intensity (a.u.)
GGACGCCGAGGCGCTGCTCGGCCACGCCCGCCTCGCCGCCCGGAGTCACCTAGTGCAG | 4000 fluorescence intensity (a.u.)
AAGCACGACATAATATATGTACCGGCAGATCGACTCAGCTCGGAGTCACCTAGTGCAG | 3780 fluorescence intensity (a.u.)
